For 42 sequences, binding signal results are on record in publication PMC7819943, “Rice protein-binding microarrays: a tool to detect cis-acting elements near promoter regions in rice”.

The list shows a part of the results.

This assay addresses T1, OsSMF1 (Oryza sativa, UniProt Q6ZLB0 1-436).
T1 sequence: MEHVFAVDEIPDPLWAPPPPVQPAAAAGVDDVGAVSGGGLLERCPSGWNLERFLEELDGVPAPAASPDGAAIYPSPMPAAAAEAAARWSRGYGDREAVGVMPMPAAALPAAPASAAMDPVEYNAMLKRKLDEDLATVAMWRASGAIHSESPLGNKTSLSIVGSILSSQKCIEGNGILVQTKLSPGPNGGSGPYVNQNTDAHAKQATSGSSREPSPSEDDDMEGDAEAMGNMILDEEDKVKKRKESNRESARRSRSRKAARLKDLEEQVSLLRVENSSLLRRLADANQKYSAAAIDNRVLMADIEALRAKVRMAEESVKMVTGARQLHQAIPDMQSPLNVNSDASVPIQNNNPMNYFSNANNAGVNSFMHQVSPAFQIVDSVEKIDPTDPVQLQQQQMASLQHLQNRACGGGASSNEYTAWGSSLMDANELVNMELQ
Kind of assay: protein-binding microarray (RPBM); PBS, 2% BSA, 51.3 ng/ul salmon testes DNA, 50 uM zinc acetate, 200 nM TF, 25 C, 1 h; high values mean tight binding. The conditions noted are these: protein: recombinant; tags: N-terminal polyhistidine and DsRed monomer fusion (pET32a); chain copies: 2; label: CyDye5-dUTP incorporated in the synthesized complementary strand; 3' TTTTT single-stranded linker to array surface; dsDNA, one strand shown. The gist of the method: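 Per-feature fluorescence intensity (arbitrary units), read on an Axon 4000B scanner, is the binding signal. Transcription factors carrying an N-terminal polyhistidine tag and DsRed fusion were expressed in E. coli BL21-CodonPlus and purified on Ni–NTA. A custom Agilent array, made double-stranded by primer extension with Cy5-dUTP and blocked with 2% BSA, was incubated with 200 nM protein in PBS, 2% BSA, salmon testes DNA and 50 µM zinc acetate at 25 °C for 1 h and then washed.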
Turning to “GAGATTTTCCACCGTGGCTGTGTGTAGGCCCAGTGATGTGCGGAGTCACCTAGTGCAG”, the binding signal is 12300 fluorescence intensity (a.u.).

For “CGGCCTGCGTCTGCGTGGCTGCGCCGTGCCGCCGTCGCGCCGGAGTCACCTAGTGCAG”, the binding signal was 4370 fluorescence intensity (a.u.).

With “CGAGCCGGAGACTCTGGCGGCGGCGTCGCGCGTTCGAGGACGGAGTCACCTAGTGCAG”, the binding signal was 5840 fluorescence intensity (a.u.).

Regarding “GGCATGTACAACAAGACCTGGGTACGTTAATTAATTACTCCGGAGTCACCTAGTGCAG”, the binding signal is 3170 fluorescence intensity (a.u.).

Turning to “AGATGTAGTTAGGAGTCTGACTTTTATCTCAAGTTAGCATCGGAGTCACCTAGTGCAG”, the binding signal is 29500 fluorescence intensity (a.u.).

Consider “TCTCGCCTACCACCAAGCTCATCTCGTTTCGTTAGCTACCCGGAGTCACCTAGTGCAG”, for which the binding signal was 41600 fluorescence intensity (a.u.).

With “TTAGATAGAGCCACGTGGCGGCCTATGAGCGTTTCTAGGACGGAGTCACCTAGTGCAG”, the binding signal is 13800 fluorescence intensity (a.u.).

As to “TTCAACTGACTAGACTTGGTCTCTCTCTCTCGCCCTGCCCCGGAGTCACCTAGTGCAG”, the binding signal was 3450 fluorescence intensity (a.u.).

For the sequence “TTGTTGGGTGGGGACGTGGGGTGGGGTTCATGGAGTGGTTCGGAGTCACCTAGTGCAG”, the binding signal was 6530 fluorescence intensity (a.u.).

Consider “GCGGCCGGCGGCGAGGTCGCGGACGGGGAGGTGGGGCGCGCGGAGTCACCTAGTGCAG”, for which the binding signal is 3600 fluorescence intensity (a.u.).

With “GTGGACAAGGCCCACCGGGGACACGCGGCCCCAGCCCGCACGGAGTCACCTAGTGCAG”, the binding signal was 4310 fluorescence intensity (a.u.).

In the case of “CAACTGCAATTTGTGCAAATACACAGTCACACTCATCTCCCGGAGTCACCTAGTGCAG”, the binding signal is 4400 fluorescence intensity (a.u.).

In the case of “AAATAACATCACAGTTCGCTATCGTCATCCTATTCCTAGGCGGAGTCACCTAGTGCAG”, the binding signal is 5990 fluorescence intensity (a.u.).

As to “GCTAATTTGACTCGGTTTTCATCTGACGTGGCATTGACGTCGGAGTCACCTAGTGCAG”, the binding signal is 41400 fluorescence intensity (a.u.).

Regarding “ATCATCCTGGATCCCCGTCACGCGAACGGGTTAGCTAAGCCGGAGTCACCTAGTGCAG”, the binding signal was 5860 fluorescence intensity (a.u.).

With “CGCCATCGCCTACTAAGCTAGCGTGTATGCTTCCAACAACCGGAGTCACCTAGTGCAG”, the binding signal was 3880 fluorescence intensity (a.u.).

On to “TATGGAGTTTACTATTCTCCTGATTATTACAAAATTTATACGGAGTCACCTAGTGCAG”, for which the binding signal was 30000 fluorescence intensity (a.u.).

Consider “CTCCATGGGCCCGTACTCGTGCCACGTGTCAATCCTGTGGCGGAGTCACCTAGTGCAG”, for which the binding signal is 12400 fluorescence intensity (a.u.).

Regarding “AACGCCATGTTTTACGTTTTCCCGCGACTTTGTTGGCGCGCGGAGTCACCTAGTGCAG”, the binding signal is 13300 fluorescence intensity (a.u.).

As for “GAGATCGGCCGTATACTAGAGCTGATGTGTTTAAGGTCGTCGGAGTCACCTAGTGCAG”, the binding signal is 3180 fluorescence intensity (a.u.).

“ATTCCTATACCATGTGTATGCGTGTGTGATATGGACACTCCGGAGTCACCTAGTGCAG”: the binding signal is 3190 fluorescence intensity (a.u.).

In the case of “TTTCTTTGGTTCAGCTGAACCATTATTTGTTGTTTTACTTCGGAGTCACCTAGTGCAG”, the binding signal was 40700 fluorescence intensity (a.u.).

With “TCCAGCCCCAGCTCTGGCTGACAAGGATTAACCCCAGATACGGAGTCACCTAGTGCAG”, the binding signal was 5390 fluorescence intensity (a.u.).

“CGCTGCACGCCAGGCGCACCGGCTGGTACGTGTACGTCCCCGGAGTCACCTAGTGCAG”: the binding signal is 3420 fluorescence intensity (a.u.).

As to “TCTGATGTCAAGTTGGTGACATGTTGCCAATCAATTCCAGCGGAGTCACCTAGTGCAG”, the binding signal is 4580 fluorescence intensity (a.u.).

Consider “TGATTGTAGTTTCTACAGTAGCAAGACAGCACGTGGCAGTCGGAGTCACCTAGTGCAG”, for which the binding signal was 4070 fluorescence intensity (a.u.).

For the sequence “CGCGCCACGCGTCGCTCTGAGCCGCCGCCAACCACCAAACCGGAGTCACCTAGTGCAG”, the binding signal is 23700 fluorescence intensity (a.u.).

As for “CCCACCCCGGGACCCTAATTCGTCAGCTCTCTACCGAAGTCGGAGTCACCTAGTGCAG”, the binding signal was 4030 fluorescence intensity (a.u.).

“CTGACGTTGGCATATAGGTAAGATGCTGATTGGTTGCGAACGGAGTCACCTAGTGCAG”: the binding signal was 6270 fluorescence intensity (a.u.).

Regarding “GATTGCTGTTTCACTTACAAATGGATCCCATGTGTCTTTTCGGAGTCACCTAGTGCAG”, the binding signal was 3920 fluorescence intensity (a.u.).

“CCTCTCCCACGTCCGCGCGCCGCCGGCTCCCTCCGCCGCCCGGAGTCACCTAGTGCAG”: the binding signal is 4700 fluorescence intensity (a.u.).

Regarding “TCAATTGTTACTTTAGATGGCTTAACTGTTATATTCTTTACGGAGTCACCTAGTGCAG”, the binding signal was 27400 fluorescence intensity (a.u.).

On to “CATCGAGAGGCTCCCGAGCATGGCCGAGATCGCCGAGGAGCGGAGTCACCTAGTGCAG”, for which the binding signal was 3500 fluorescence intensity (a.u.).

As for “ACTTCGCTAGGGTGTGCGTGACTTTGTCAGTGAGGTCGCCCGGAGTCACCTAGTGCAG”, the binding signal was 3730 fluorescence intensity (a.u.).

Take “CTCCGCCCATTTCTCCTCTCCACCTGCGATCCATCCGCGCCGGAGTCACCTAGTGCAG”: the binding signal is 3180 fluorescence intensity (a.u.).

For the sequence “GGGACCATATATCAATTATGCTGACAAGACAATCCATCTGCGGAGTCACCTAGTGCAG”, the binding signal was 3160 fluorescence intensity (a.u.).

Consider “CATGTGCACTGTGATTCTCTCAGTTTTGTATCATCAAGATCGGAGTCACCTAGTGCAG”, for which the binding signal is 3420 fluorescence intensity (a.u.).

Consider “AAACAAGACGTGGCGACTGGCCGACCTCCCTCGTGGACACCGGAGTCACCTAGTGCAG”, for which the binding signal is 5530 fluorescence intensity (a.u.).

On to “AGGAGAGGTCGATCCACCAGAGCATCGTCCCGACGTGGGACGGAGTCACCTAGTGCAG”, for which the binding signal was 3730 fluorescence intensity (a.u.).

In the case of “GAGTCCCACCAGTATCCACGTTGGATCTGTTCCTGTTGTGCGGAGTCACCTAGTGCAG”, the binding signal was 6800 fluorescence intensity (a.u.).

As for “ATGGTGGTGGATCTGTGGTTGTATTGACTTTACCCATCAACGGAGTCACCTAGTGCAG”, the binding signal is 3770 fluorescence intensity (a.u.).

In the case of “ATAGTCTTCACCAATCTCCTTGGGACACGTTTGTGTCGGTCGGAGTCACCTAGTGCAG”, the binding signal was 3890 fluorescence intensity (a.u.).
